Reference: PubChem BioAssay AID504791 (Drosophila RNAi Screening Center, 2011)
The deposit covers about 23,000 reagents; this is a random part of those with a known target gene and a result. In the full data, 199 (0.86%) were called active. 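Plate-scaled ratios behind the calls are not deposited; printed light signals are raw; many rows marked increased or decreased are still called inactive.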 Reagents against one gene are numbered here. Names joined by + are all predicted targets of the reagent. No sequences are given here. The record does not give: the direction of the score.

- Screen: 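Genes of the fly required for silencing by miRNA, siRNA or endo-siRNA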 (primary screen)
- Cells: Drosophila S2-derived reporter cells
- Knock-down reagent: long dsRNA against Drosophila genes, about 150-250 ng dsRNA per well (siRNA assay); about 80-120 ng (miRNA assay)
- Duration: about 5 days (siRNA assay); about 4 days (miRNA assay)
- Conditions: copper sulfate induction of reporters: 25 µM (siRNA assay); 200 mM stated (miRNA assay), 1-2 days before reading
- Read-out: 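Dual luciferase assay: Renilla to firefly signal ratio in each well, scaled to the mean ratio of its plate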
- Units: stable assay Renilla, run 1 in luminescence; stable assay firefly, run 1 in luminescence
- Hit rule: 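First-pass picks had plate-scaled ratios over 1.5 for the siRNA assay, over 1.6 for the miRNA assay, or under 0.6; two distinct dsRNAs had to score alike on retest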

For rec #1, what does the deposit list?
stable assay Renilla, run 1: 6771; stable assay firefly, run 1: 3.29e5; Call: inactive

How did the screen score rec #2?
stable assay Renilla, run 1: 7307; stable assay firefly, run 1: 3.44e5; Call: inactive

With Poxn #1, what does the deposit list?
stable assay Renilla, run 1: 5787; stable assay firefly, run 1: 4.23e5; Call: inactive

With Poxn #2, what was measured?
stable assay Renilla, run 1: 7098; stable assay firefly, run 1: 4.62e5; Call: inactive

With tplus3a + tplus3b, how do the results read?
stable assay Renilla, run 1: 6530; stable assay firefly, run 1: 3.41e5; Call: inactive

Which result is listed for GstE4?
stable assay Renilla, run 1: 6106; stable assay firefly, run 1: 2.80e5; Call: inactive

With CG18787 + CG18789, what does the deposit list?
stable assay Renilla, run 1: 8683; stable assay firefly, run 1: 3.96e5; Call: inactive

Which result is listed for dos #1?
stable assay Renilla, run 1: 4015; stable assay firefly, run 1: 3.17e5; Call: inactive

For dos #2, what was measured?
stable assay Renilla, run 1: 6051; stable assay firefly, run 1: 3.56e5; Call: inactive

With dos #3, what was measured?
stable assay Renilla, run 1: 2660; stable assay firefly, run 1: 2.38e5; Call: inactive

With CG34284, what was measured?
stable assay Renilla, run 1: 7267; stable assay firefly, run 1: 4.46e5; Call: inactive

Part of the list above, reformatted.
{"Target gene":"dos","reagent":2,"stable assay Renilla, run 1":6051,"stable assay firefly, run 1":3.56e5,"Call":"inactive"}
{"Target gene":"dos","reagent":3,"stable assay Renilla, run 1":2660,"stable assay firefly, run 1":2.38e5,"Call":"inactive"}
{"Target gene":"CG34284","reagent":1,"stable assay Renilla, run 1":7267,"stable assay firefly, run 1":4.46e5,"Call":"inactive"}

The listing continues.
For CG4763 #1, what was measured?
stable assay Renilla, run 1: 5063; stable assay firefly, run 1: 4.94e5; Call: inactive

With CG4763 #2, how do the results read?
stable assay Renilla, run 1: 7295; stable assay firefly, run 1: 4.41e5; Call: inactive

What did the screen give for CG9410 + CG15908 #1?
stable assay Renilla, run 1: 7779; stable assay firefly, run 1: 4.20e5; Call: inactive

What did the screen give for CG9410 + CG15908 #2?
stable assay Renilla, run 1: 5524; stable assay firefly, run 1: 3.53e5; Call: inactive

Which result is listed for CG18095?
stable assay Renilla, run 1: 7222; stable assay firefly, run 1: 3.76e5; Call: inactive

Which result is listed for CG15080?
stable assay Renilla, run 1: 5331; stable assay firefly, run 1: 4.01e5; Call: inactive

How did the screen score CG14431?
stable assay Renilla, run 1: 4975; stable assay firefly, run 1: 3.02e5; Call: inactive

For CG1738, how do the results read?
stable assay Renilla, run 1: 6078; stable assay firefly, run 1: 5.46e5; Call: inactive
